Assay results as given in article PMC3749136.
These are yes or no findings as the source states them, for the method shown. Binding seen in cells or lysates may run through a third protein. Some results given as binding are weak or reduced against the parent protein; the word gives no strength. Tags and fused reporters may be left off the sequences shown.

Amino acid sequences for entries named in this document (tags omitted).
UniProt P52332: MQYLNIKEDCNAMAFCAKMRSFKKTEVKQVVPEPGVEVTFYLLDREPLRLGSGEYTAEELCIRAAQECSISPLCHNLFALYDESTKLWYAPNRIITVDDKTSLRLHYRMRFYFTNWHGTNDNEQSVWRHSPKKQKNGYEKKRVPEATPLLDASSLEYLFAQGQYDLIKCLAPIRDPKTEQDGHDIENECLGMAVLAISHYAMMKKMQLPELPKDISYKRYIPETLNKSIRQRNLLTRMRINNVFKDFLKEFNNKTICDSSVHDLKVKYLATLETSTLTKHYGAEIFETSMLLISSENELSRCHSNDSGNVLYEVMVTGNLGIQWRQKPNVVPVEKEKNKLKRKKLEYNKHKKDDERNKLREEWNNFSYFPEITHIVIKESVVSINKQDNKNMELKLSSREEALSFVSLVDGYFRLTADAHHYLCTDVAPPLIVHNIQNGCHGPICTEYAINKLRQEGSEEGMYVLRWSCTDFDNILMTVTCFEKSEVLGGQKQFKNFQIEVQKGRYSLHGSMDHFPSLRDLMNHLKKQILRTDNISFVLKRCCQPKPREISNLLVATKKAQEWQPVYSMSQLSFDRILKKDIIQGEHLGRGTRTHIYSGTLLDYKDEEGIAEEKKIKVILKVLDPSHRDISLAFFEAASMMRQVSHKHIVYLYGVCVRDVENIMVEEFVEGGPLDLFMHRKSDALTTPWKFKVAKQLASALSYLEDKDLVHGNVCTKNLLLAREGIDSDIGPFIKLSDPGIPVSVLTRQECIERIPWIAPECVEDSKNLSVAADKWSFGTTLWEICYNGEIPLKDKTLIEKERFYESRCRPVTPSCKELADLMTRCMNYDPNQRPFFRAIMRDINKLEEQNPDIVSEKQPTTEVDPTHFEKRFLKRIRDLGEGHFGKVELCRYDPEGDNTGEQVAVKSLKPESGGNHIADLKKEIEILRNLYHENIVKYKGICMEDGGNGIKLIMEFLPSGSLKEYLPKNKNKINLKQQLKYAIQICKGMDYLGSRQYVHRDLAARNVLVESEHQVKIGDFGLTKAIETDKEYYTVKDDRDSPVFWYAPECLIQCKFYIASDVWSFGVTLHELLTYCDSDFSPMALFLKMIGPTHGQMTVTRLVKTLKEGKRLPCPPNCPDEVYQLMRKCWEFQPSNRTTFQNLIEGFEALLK
UniProt Q62120: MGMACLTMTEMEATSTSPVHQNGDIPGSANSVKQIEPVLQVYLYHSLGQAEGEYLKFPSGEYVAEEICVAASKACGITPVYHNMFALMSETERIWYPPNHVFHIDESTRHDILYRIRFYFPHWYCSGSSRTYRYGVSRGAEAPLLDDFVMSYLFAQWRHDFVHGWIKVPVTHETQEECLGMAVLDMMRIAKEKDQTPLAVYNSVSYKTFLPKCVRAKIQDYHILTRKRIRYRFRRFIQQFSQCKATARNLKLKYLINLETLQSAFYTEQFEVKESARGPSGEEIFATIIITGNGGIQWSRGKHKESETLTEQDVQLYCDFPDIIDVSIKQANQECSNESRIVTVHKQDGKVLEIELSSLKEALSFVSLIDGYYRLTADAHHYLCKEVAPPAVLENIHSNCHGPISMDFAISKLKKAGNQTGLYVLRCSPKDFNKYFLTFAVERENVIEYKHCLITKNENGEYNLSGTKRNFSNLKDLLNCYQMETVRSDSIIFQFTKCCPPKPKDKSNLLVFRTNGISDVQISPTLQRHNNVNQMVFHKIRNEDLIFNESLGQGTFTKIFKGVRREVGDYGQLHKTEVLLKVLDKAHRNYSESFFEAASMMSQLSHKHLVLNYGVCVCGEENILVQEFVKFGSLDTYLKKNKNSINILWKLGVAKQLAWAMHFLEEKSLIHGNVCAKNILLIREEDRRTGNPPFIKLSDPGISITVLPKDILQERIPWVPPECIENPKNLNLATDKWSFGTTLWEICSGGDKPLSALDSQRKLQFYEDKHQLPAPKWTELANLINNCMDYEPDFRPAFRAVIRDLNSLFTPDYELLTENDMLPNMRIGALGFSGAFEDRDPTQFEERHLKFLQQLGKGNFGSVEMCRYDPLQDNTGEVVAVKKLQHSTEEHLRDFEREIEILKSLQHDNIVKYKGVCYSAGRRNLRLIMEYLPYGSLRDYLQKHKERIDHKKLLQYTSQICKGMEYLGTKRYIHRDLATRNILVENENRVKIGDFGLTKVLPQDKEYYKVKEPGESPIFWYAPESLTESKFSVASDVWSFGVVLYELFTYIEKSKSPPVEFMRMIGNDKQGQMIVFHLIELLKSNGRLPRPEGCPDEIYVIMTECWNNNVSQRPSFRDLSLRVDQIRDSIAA
UniProt P52333: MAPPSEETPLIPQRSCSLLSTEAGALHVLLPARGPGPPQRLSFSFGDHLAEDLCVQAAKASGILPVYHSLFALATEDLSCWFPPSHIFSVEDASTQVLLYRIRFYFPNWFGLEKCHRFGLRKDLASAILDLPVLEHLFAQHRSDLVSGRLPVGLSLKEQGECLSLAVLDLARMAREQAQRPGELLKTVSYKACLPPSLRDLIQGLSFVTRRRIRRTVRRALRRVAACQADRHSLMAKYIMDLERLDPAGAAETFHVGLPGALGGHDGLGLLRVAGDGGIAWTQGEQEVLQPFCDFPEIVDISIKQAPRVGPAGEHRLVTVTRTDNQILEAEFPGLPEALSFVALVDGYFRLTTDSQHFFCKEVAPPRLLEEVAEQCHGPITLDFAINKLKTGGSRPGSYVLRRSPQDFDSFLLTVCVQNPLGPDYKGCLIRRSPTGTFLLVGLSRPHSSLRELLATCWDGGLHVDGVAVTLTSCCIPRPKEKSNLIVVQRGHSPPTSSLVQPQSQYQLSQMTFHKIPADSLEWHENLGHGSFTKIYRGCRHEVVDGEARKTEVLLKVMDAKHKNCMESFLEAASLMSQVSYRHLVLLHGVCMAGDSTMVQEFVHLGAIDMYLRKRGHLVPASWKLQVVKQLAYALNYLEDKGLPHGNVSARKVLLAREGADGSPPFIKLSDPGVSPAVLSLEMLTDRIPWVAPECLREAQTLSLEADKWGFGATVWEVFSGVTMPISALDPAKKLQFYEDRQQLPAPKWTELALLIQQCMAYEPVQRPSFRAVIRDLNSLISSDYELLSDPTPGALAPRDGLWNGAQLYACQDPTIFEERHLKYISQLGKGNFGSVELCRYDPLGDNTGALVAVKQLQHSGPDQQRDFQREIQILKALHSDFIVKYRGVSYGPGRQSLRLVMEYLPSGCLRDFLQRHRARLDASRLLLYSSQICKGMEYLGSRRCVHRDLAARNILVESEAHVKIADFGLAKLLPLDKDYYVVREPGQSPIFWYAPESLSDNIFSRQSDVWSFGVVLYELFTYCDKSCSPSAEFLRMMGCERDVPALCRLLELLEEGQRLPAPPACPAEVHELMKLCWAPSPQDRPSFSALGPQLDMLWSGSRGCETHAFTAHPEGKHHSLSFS
UniProt Q9R117: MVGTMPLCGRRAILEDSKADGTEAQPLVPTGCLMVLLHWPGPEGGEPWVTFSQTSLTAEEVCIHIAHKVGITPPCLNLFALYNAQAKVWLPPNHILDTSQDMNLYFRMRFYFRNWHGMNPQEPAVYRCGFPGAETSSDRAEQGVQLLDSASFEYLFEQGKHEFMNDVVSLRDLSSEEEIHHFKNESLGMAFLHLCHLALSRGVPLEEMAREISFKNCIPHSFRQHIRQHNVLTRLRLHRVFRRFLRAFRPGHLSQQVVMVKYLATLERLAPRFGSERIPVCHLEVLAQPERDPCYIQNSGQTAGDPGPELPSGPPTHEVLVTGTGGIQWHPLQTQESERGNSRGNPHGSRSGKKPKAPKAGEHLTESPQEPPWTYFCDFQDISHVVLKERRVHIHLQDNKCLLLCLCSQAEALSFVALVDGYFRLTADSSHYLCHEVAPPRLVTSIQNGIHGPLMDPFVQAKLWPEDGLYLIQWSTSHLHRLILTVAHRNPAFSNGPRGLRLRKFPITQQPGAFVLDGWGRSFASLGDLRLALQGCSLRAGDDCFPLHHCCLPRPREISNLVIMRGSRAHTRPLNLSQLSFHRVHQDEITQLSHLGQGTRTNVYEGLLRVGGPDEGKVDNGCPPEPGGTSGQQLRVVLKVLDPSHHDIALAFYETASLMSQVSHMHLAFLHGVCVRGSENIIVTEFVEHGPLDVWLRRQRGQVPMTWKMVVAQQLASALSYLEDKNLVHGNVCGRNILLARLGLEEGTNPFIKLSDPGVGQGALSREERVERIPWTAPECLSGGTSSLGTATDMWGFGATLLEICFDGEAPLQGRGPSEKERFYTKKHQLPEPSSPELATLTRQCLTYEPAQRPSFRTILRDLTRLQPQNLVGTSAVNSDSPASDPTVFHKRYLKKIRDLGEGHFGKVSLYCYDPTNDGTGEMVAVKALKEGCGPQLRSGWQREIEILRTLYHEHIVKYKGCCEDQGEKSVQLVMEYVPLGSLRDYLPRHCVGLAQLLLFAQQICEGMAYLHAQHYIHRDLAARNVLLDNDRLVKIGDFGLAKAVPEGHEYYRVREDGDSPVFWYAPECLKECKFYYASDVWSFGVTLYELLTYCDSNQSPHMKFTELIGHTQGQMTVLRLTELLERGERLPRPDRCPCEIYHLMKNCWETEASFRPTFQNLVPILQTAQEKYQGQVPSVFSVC

What was measured:
Flag-tagged JAK1 (mouse) = Flag-tagged JAK1 (mouse) (UniProt P52332); experiment: co-IP; 293T cells co-transfected with Myc-SOCS5 and Flag-JAK; KALB lysis buffer; anti-Flag (M2) immunoprecipitation, blot with anti-SOCS5
Flag-tagged JAK2 (mouse) = Flag-tagged JAK2 (mouse) (UniProt Q62120); experiment: as above
Flag-tagged JAK3 (human) = Flag-tagged JAK3 (human) (UniProt P52333); experiment: as above
Flag-tagged TYK2 (mouse) = Flag-tagged TYK2 (mouse) (UniProt Q9R117); experiment: as above
[1] = molecular target: T1, 2Flag-GFP-Shc-1 fusion protein (UniProt P98083); experiment: co-IP; 293T cells co-transfected with Myc-SOCS5 and Flag-Shc-1; MG132 and pervanadate before lysis in 1% NP-40 buffer; anti-Flag M2 immunoprecipitation, blot with anti-SOCS5
T1 sequence (chain, phosphotyrosine at 317 (shown by a phospho-specific antibody for Shc-1-Tyr317)): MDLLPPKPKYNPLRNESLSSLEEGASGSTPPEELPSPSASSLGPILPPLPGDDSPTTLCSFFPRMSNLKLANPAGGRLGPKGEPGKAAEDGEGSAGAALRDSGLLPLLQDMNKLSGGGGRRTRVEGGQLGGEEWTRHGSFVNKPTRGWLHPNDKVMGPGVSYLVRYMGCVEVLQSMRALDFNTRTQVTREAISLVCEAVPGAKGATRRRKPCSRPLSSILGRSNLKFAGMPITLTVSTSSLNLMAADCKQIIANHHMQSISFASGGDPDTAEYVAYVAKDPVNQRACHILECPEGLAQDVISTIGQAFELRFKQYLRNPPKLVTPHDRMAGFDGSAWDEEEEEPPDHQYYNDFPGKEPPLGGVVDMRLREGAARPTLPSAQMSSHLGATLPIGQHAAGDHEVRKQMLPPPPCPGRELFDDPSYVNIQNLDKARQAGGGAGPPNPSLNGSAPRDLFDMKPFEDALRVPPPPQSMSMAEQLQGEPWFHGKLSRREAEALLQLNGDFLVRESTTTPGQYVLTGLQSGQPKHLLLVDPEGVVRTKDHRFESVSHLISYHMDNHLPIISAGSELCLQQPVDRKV

Measured: binding

B1: Myc-tagged SOCS5 (protein, UniProt O54928 1-536)
chain: MDKVGKMWNNLKYRCQNLFSHEGGSRNENVEMNPNRCPSVKEKSISLGEAAPQQESSPLRENVALQLGLSPSKTFSRRNQNCAAEIPQVVEISIEKDSDSGATPGTRLARRDSYSRHAPWGGKKKHSCSTKTQSSLDTEKKFGRTRSGLQRRERRYGVSSMQDMDSVSSRAVGSRSLRQRLQDTVGLCFPMRTYSKQSKPLFSNKRKIHLSELMLEKCPFPAGSDLAQKWHLIKQHTAPVSPHSTFFDTFDPSLVSTEDEEDRLRERRRLSIEEGVDPPPNAQIHTFEATAQVNPLYKLGPKLAPGMTEISGDGSAIPQTNCDSEEDSTTLCLQSRRQKQRQVSGDSHAHVSRQGAWKVHTQIDYIHCLVPDLLQITGNPCYWGVMDRYEAEALLEGKPEGTFLLRDSAQEDYLFSVSFRRYNRSLHARIEQWNHNFSFDAHDPCVFHSSTVTGLLEHYKDPSSCMFFEPLLTISLNRTFPFSLQYICRAVICRCTTYDGIDGLPLPSMLQDFLKEYHYKQKVRVRWLEREPVKAK
binds: Flag-tagged JAK1 (mouse) | Flag-tagged JAK2 (mouse) | Flag-tagged JAK3 (human) | Flag-tagged TYK2 (mouse) | [1]
